Reference: patent US20190055314A1

Columns and labels:
[1] = molecular target: canine CD137 overexpressed on HEK293F cell surface (dog); assay: flow cytometry, HEK293F
[2] = molecular target: rat CD137 (as named in the SPR paragraph) (rat); assay: SPR paragraph
[3] = molecular target: canine CD137 overexpressed on HEK293F cell surface (dog); assay: summary of Example 4
[4] = molecular target: canine CD137 overexpressed on HEK293F cell surface (dog); assay: flow cytometry, HEK293F cells expressing CD137, IgG 100 nM [Cont.]

Row | Binder | binding [1] | binding [2] | binding [3] | binding [4]
1 | AG10058 (antibody, human IgG4 S228P, kappa, V domains shown) VH: EVQLVESGGGLVQPGGSLRLSCAASGFSLSTSGVGVGWIRQAPGKGLEWLALIDWDDDKYYSPSLKSRLTISRDNSKNTLYLQLNSLRAEDTAVYYCARGGSDTVLGDWFAYWGQGTLVTVSS VL: DIQLTQSPSSLSASVGDRVTITCRASQSVSPYLAWYQQKPGKAPKLLIYDASSLESGVPSRFSGSGSGTDFTLTISSLQPEDFATYYCQQGYSLWTFGQGTKVEIKR | binds | binds | binds | binds
2 | AG10059 (antibody, human IgG4 S228P, kappa, V domains shown) VH: EVQLVESGGGLVQPGGSLRLSCAASGYSITSGHYWAWIRQAPGKGLEWVSSISGYGSTTYYADSVKGRFTISRDNSKNTLYLQLNSLRAEDTAVYYCARGGSDAVLGDWFAYWGQGTLVTVSS VL: DIQLTQSPSSLSASVGDRVTITCRASQGIGSFLAWYQQKPGKAPKLLIYDASNLETGVPSRFSGSGSGTDFTLTISSLQPEDFATYYCQQGYYLWTFGQGTKVEIKR | – | no binding | – | binds

These are yes or no findings as the source states them, for the method shown. A result given as binding can be weak or reduced; the word gives no strength.
